Source: patent US20060286173A1, “Drug delivery system for sub-tenon s capsule adminstration of fine grains” (priority 2003, published 2006)
At least one structure is not confirmed: it was looked up by name or label, or the drawing left a doubt.

Assay: In vitro drug release test
Assay type: physicochemical
Conditions: 0.1 M phosphate buffer pH 7.4, 37° C.
Method: This mixture was placed in a glass vessel, and thereto was added 98.5 mL of 0.1 M phosphate buffer (pH 7.4). The entire mixture was shaken in a water bath at 37° C., and the in vitro drug release test was started. […] As a control, the powder of each drug in the same amount was charged into the chamber described above, and the release test was conducted in the same manner.
2) On day 1, 2, 6, 14, 29 after starting the test, the buffer was sampled in its entirety, which was analyzed using high performance liquid chromatography. Also, after the sampling, 98.5 mL of 0.1 M phosphate buffer (pH 7.4) was freshly added, and the release test was continued.

SMILES | In vitro drug release rate (%) (Day 1) | In vitro drug release rate (%) (Day 2) | In vitro drug release rate (%) (Day 6) | In vitro drug release rate (%) (Day 14)
C[C@H]1C[C@H]2[C@@H]3CCC4=CC(=O)C=C[C@]4(C)[C@@]3(F)[C@@H](O)C[C@]2(C)[C@@]1(O)C(=O)CO [Betamethasone powder, betamethasone] | 51.5 | 85.0 | 97.7 | 
C[C@@H]1C[C@H]2[C@@H]3CCC4=CC(=O)C=C[C@]4(C)[C@@]3(F)[C@@H](O)C[C@]2(C)[C@@]1(O)C(=O)CO [Dexamethasone powder, dexamethasone] | 53.6 | 73.0 | 92.1 | 96.8
